# Assay results: the supplement of paper PMC10032668
# Chains of the proteins cited; added tags and fusions are not shown.
# HBA1, P69905, UniProt P69905, whole entry: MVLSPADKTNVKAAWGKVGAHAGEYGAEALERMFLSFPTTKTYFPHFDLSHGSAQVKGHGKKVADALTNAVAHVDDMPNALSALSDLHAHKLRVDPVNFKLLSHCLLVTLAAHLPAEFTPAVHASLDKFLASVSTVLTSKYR
# NUTF2, P61970, UniProt P61970, whole entry: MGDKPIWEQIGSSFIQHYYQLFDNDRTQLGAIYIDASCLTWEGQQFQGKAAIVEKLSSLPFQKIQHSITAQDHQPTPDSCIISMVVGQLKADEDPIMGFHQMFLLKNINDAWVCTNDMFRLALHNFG
# TUBB4A, P04350, UniProt P04350, whole entry: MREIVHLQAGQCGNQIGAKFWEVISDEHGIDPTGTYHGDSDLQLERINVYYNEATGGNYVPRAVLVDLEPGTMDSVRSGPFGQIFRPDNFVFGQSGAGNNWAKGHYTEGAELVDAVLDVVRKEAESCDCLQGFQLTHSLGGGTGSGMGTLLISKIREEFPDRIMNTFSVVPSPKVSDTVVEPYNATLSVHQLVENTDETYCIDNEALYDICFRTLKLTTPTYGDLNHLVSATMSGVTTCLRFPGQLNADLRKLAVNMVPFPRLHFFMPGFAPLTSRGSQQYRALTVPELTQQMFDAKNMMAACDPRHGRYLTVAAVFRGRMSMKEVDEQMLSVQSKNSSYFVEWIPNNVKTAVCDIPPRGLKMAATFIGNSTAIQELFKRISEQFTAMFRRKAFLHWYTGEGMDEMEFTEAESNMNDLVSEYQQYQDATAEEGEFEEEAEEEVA
# IK, Q13123, UniProt Q13123, whole entry: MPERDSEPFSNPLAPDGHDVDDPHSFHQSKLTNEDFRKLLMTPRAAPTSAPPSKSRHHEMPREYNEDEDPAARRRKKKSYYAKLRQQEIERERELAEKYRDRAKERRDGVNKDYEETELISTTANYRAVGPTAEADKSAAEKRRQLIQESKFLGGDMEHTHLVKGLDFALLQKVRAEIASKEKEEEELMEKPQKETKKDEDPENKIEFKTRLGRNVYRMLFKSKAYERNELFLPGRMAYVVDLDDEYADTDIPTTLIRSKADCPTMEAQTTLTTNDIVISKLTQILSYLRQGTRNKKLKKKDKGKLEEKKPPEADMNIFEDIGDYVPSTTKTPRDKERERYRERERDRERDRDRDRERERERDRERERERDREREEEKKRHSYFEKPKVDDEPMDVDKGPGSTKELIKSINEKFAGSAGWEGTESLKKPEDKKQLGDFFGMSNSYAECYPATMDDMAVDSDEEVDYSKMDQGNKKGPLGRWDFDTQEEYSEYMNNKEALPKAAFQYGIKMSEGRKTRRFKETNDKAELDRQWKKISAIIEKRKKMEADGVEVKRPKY
# NDUFA12, Q9UI09, UniProt Q9UI09, whole entry: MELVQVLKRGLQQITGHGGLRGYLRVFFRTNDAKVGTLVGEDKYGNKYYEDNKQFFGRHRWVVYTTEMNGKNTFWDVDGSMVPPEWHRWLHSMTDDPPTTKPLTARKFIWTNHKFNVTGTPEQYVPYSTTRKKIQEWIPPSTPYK
# NELFE, P18615, UniProt P18615, whole entry: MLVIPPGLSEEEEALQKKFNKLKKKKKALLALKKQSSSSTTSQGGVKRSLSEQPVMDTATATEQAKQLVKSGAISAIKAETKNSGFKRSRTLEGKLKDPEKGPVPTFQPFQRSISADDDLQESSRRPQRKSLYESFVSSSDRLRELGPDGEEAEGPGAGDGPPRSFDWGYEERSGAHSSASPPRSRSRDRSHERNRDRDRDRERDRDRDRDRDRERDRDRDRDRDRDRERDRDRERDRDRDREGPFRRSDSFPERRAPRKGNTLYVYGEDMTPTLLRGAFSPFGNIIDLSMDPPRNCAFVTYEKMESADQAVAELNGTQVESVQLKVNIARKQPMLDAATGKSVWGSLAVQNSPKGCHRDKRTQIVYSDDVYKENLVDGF
# NCOR2, Q9Y618, UniProt Q9Y618, whole entry: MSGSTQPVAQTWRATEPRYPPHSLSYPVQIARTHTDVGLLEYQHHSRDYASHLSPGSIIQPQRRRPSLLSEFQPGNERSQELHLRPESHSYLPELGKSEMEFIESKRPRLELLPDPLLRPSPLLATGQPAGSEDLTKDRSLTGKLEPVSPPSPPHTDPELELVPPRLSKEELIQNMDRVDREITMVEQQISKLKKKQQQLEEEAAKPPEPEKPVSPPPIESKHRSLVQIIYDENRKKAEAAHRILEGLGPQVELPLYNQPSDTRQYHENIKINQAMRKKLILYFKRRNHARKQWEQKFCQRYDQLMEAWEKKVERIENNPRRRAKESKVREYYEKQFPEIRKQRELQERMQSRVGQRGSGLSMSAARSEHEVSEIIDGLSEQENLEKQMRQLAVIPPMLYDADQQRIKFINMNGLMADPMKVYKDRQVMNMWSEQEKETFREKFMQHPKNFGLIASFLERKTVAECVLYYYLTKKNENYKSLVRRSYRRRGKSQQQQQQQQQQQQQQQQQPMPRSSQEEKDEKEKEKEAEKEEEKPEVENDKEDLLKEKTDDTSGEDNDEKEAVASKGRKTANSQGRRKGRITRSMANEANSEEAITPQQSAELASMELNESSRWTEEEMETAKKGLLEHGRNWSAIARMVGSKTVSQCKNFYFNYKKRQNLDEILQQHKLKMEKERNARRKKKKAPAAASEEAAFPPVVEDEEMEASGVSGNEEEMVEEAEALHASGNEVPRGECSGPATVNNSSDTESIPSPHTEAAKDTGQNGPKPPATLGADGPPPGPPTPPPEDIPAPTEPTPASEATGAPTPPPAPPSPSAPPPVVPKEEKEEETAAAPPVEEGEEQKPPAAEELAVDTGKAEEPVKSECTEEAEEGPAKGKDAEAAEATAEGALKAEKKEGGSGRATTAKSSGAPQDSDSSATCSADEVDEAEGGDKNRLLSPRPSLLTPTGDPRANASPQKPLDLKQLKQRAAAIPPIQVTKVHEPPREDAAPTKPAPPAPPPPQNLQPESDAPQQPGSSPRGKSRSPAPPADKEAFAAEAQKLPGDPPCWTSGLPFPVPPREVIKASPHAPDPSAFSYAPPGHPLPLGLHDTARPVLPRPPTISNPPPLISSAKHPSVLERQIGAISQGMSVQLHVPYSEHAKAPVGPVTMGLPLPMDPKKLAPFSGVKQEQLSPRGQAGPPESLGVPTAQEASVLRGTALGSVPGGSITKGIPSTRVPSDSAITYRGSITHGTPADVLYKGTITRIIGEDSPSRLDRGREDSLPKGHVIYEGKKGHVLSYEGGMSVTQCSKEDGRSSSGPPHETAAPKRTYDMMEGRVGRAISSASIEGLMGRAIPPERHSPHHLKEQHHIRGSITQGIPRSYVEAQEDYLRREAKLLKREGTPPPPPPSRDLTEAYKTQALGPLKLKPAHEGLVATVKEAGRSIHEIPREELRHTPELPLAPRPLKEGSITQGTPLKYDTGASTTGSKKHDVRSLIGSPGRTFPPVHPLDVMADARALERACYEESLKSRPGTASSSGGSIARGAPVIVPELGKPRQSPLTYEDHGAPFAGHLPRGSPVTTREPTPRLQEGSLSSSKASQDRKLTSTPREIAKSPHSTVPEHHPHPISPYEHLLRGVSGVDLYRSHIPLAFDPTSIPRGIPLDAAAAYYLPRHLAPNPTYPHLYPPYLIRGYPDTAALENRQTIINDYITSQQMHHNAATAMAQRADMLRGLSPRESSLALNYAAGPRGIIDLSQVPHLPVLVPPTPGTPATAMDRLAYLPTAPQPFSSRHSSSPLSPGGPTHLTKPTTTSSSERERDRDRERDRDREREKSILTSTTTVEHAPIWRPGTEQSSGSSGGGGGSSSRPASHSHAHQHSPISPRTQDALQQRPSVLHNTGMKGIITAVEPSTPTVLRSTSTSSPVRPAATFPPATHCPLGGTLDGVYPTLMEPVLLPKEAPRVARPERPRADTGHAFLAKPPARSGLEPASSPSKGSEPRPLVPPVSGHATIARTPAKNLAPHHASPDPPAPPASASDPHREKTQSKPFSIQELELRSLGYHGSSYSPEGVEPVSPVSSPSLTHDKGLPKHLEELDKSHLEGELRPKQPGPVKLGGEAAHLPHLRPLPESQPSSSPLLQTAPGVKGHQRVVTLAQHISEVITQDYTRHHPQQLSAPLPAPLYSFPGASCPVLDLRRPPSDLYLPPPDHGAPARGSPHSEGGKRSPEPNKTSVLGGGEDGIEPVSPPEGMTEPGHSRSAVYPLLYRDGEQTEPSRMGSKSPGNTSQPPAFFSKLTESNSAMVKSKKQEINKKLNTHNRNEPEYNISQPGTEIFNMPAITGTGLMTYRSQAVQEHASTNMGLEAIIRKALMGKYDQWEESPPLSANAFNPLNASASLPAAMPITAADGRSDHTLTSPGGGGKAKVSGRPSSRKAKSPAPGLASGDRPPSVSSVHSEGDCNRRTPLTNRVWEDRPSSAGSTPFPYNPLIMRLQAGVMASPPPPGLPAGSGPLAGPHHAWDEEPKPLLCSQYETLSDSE
# Some of the results follow. The list holds hits alone, and they repeat only in part.
# Legend:
# Test in all cases: PRISMA enrichment of interactor (LFQ) in peptide spot vs all other peptide spots (log2 fold change); higher = stronger / more specific binding of the interactor to the peptide
# MARK2, Q7KZI7 = biological target: MARK2, Q7KZI7
# Procedure: (§1)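 PRISMA: 221 full-length sORF-encoded peptides (3-15 aa), plus SOS1/GLUT1 control peptides, were spot-synthesized on cellulose membranes in triplicate. Membranes were incubated with HEK293T lysate, and bound proteins were identified by LC-MS/MS with LFQ. Enrichment is the log2 fold change versus all other peptide spots; only significant interactors are listed (cutoff c=6, x0=2.8).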
# POLD2, P49005 = biological target: POLD2, P49005
# Procedure: as §1
# MRPS15, P82914 = biological target: MRPS15, P82914
# Procedure: as §1
# NUP54, Q7Z3B4 = biological target: NUP54, Q7Z3B4
# Procedure: as §1
# LGALS4, P56470 = biological target: LGALS4, P56470
# Procedure: as §1
# MPHOSPH10, O00566 = biological target: MPHOSPH10, O00566
# Procedure: as §1
# MRS2, Q9HD23 = biological target: MRS2, Q9HD23
# Procedure: as §1
# NUDT16, Q96DE0 = biological target: NUDT16, Q96DE0
# Procedure: as §1
# RRP9, O43818 = biological target: RRP9, O43818
# Procedure: as §1
# HBA1, P69905 = biological target: HBA1, P69905
# Procedure: as §1
# OBSL1, O75147 = biological target: OBSL1, O75147
# Procedure: as §1
# POLR3E, Q9NVU0 = biological target: POLR3E, Q9NVU0
# Procedure: as §1
# UTP4, Q969X6 = biological target: UTP4, Q969X6
# Procedure: as §1
# WBP11, Q9Y2W2 = biological target: WBP11, Q9Y2W2
# Procedure: as §1
# HBB, P68871 = biological target: HBB, P68871
# Procedure: as §1
# [1] = substrate: PPIF, P30405
# Procedure: as §1
# PPIL1, Q9Y3C6 = biological target: PPIL1, Q9Y3C6
# Procedure: as §1
# SF3B4, Q15427 = biological target: SF3B4, Q15427
# Procedure: as §1
# HOMER1, Q86YM7 = biological target: HOMER1, Q86YM7
# Procedure: as §1
# NUTF2, P61970 = biological target: NUTF2, P61970
# Procedure: as §1
# SNRNP40, Q96DI7 = biological target: SNRNP40, Q96DI7
# Procedure: as §1
# SPAG9, O60271 = biological target: SPAG9, O60271
# Procedure: as §1
# HNRNPUL1, Q9BUJ2 = biological target: HNRNPUL1, Q9BUJ2
# Procedure: as §1
# LSM8, O95777 = biological target: LSM8, O95777
# Procedure: as §1
# MICU2, Q8IYU8 = biological target: MICU2, Q8IYU8
# Procedure: as §1
# RAB6A, P20340 = biological target: RAB6A, P20340
# Procedure: as §1
# RMI2, Q96E14 = biological target: RMI2, Q96E14
# Procedure: as §1
# SRSF8, Q9BRL6 = biological target: SRSF8, Q9BRL6
# Procedure: as §1
# TUBB4A, P04350 = biological target: TUBB4A, P04350
# Procedure: as §1
# UBAC2, Q8NBM4 = biological target: UBAC2, Q8NBM4
# Procedure: as §1
# TPT1, P13693 = biological target: TPT1, P13693
# Procedure: as §1
# FAM49B, Q9NUQ9 = biological target: FAM49B, Q9NUQ9
# Procedure: (§2)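 PRISMA: 15-aa overlapping tiles (offset 8 aa) of 60 microproteins, plus SOS1/GLUT1 control peptides, were spot-synthesized on cellulose membranes in triplicate. Membranes were incubated with benzonase-treated HEK293T lysate, and bound proteins were identified by LC-MS/MS with LFQ. Enrichment is the log2 fold change of each protein in one spot versus all other spots. Only interactors passing the significance cutoff are listed.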
# GPD1L, Q8N335 = biological target: GPD1L, Q8N335
# Procedure: as §2
# GSK3B, P49841 = biological target: GSK3B, P49841
# Procedure: as §2
# NTMT1, Q9BV86 [2] = biological target: NTMT1, Q9BV86
# Procedure: as §2
# IK, Q13123 = biological target: IK, Q13123
# Procedure: as §1
# LAMP1, P11279 = biological target: LAMP1, P11279
# Procedure: as §1
# LYPLA1, O75608 = biological target: LYPLA1, O75608
# Procedure: as §1
# NDUFA12, Q9UI09 = biological target: NDUFA12, Q9UI09
# Procedure: as §1
# UBE2R2, Q712K3 = biological target: UBE2R2, Q712K3
# Procedure: as §1
# NSUN4, Q96CB9 = biological target: NSUN4, Q96CB9
# Procedure: as §1
# NXT1, Q9UKK6 = biological target: NXT1, Q9UKK6
# Procedure: as §1
# PINX1, Q96BK5 = biological target: PINX1, Q96BK5
# Procedure: as §1
# KPNA6, O60684 = biological target: KPNA6, O60684
# Procedure: as §1
# GPN2, Q9H9Y4 = biological target: GPN2, Q9H9Y4
# Procedure: as §1
# IARS2, Q9NSE4 = biological target: IARS2, Q9NSE4
# Procedure: as §1
# TRAF2, Q12933 = biological target: TRAF2, Q12933
# Procedure: as §1
# NELFE, P18615 = biological target: NELFE, P18615
# Procedure: as §1
# POLDIP2, Q9Y2S7 = biological target: POLDIP2, Q9Y2S7
# Procedure: as §1
# STAU2, Q9NUL3 = biological target: STAU2, Q9NUL3
# Procedure: as §1
# WRNIP1, Q96S55 = biological target: WRNIP1, Q96S55
# Procedure: as §1
# NTMT1, Q9BV86 [3] = biological target: NTMT1, Q9BV86; remark: listed apart in the source
# Procedure: as §1
# NCOR2, Q9Y618 = biological target: NCOR2, Q9Y618
# Procedure: as §1
# SCYL1, Q96KG9 = biological target: SCYL1, Q96KG9
# Procedure: as §1
# TBCD, Q9BTW9 = biological target: TBCD, Q9BTW9
# Procedure: as §1
# UTP11, Q9Y3A2 = biological target: UTP11, Q9Y3A2
# Procedure: as §1
binder,measurement,setting,value
MLAWSRN [PLXNB2],PRISMA enrichment of interactor (log2),"MARK2, Q7KZI7",4.49
same,PRISMA enrichment of interactor (log2),"POLD2, P49005",3.9
MAGGV,PRISMA enrichment of interactor (log2),"MRPS15, P82914",11.5
MSLAWFSLHWA [ADGRF5],PRISMA enrichment of interactor (log2),"NUP54, Q7Z3B4",4.83
MVETRRKYE [ABCA8],PRISMA enrichment of interactor (log2),"LGALS4, P56470",5.24
same,PRISMA enrichment of interactor (log2),"MPHOSPH10, O00566",7.18
MEIRGTGS [PPP1R12B],PRISMA enrichment of interactor (log2),"MRS2, Q9HD23",5.79
same,PRISMA enrichment of interactor (log2),"NUDT16, Q96DE0",5.42
same,PRISMA enrichment of interactor (log2),"RRP9, O43818",5.01
MKTKLNRLLPNIY [METTL7A],PRISMA enrichment of interactor (log2),"HBA1, P69905",5.06
same,PRISMA enrichment of interactor (log2),"OBSL1, O75147",6.15
same,PRISMA enrichment of interactor (log2),"POLR3E, Q9NVU0",4.59
same,PRISMA enrichment of interactor (log2),"UTP4, Q969X6",4.18
same,PRISMA enrichment of interactor (log2),"WBP11, Q9Y2W2",5.36
MSRRDEGPESL [SLC39A7],PRISMA enrichment of interactor (log2),"HBB, P68871",6.33
same,PRISMA enrichment of interactor (log2),[1],8.36
same,PRISMA enrichment of interactor (log2),"PPIL1, Q9Y3C6",4.89
same,PRISMA enrichment of interactor (log2),"SF3B4, Q15427",4.93
MYWRPDQKPF,PRISMA enrichment of interactor (log2),"HOMER1, Q86YM7",4.1
same,PRISMA enrichment of interactor (log2),"NUTF2, P61970",5.34
same,PRISMA enrichment of interactor (log2),"SNRNP40, Q96DI7",4.34
same,PRISMA enrichment of interactor (log2),"SPAG9, O60271",4.07
MRHCVPASLSFWQRL [GPAT4],PRISMA enrichment of interactor (log2),"HNRNPUL1, Q9BUJ2",6.51
same,PRISMA enrichment of interactor (log2),"LSM8, O95777",4.96
same,PRISMA enrichment of interactor (log2),"MICU2, Q8IYU8",4.28
same,PRISMA enrichment of interactor (log2),"RAB6A, P20340",5.35
same,PRISMA enrichment of interactor (log2),"RMI2, Q96E14",5.38
same,PRISMA enrichment of interactor (log2),"SRSF8, Q9BRL6",5.87
same,PRISMA enrichment of interactor (log2),"TUBB4A, P04350",4.21
same,PRISMA enrichment of interactor (log2),"UBAC2, Q8NBM4",3.91
MKGQY [BANCR],PRISMA enrichment of interactor (log2),"TPT1, P13693",10.6
same,PRISMA enrichment of interactor (log2),"FAM49B, Q9NUQ9",4.25
same,PRISMA enrichment of interactor (log2),"GPD1L, Q8N335",4.98
same,PRISMA enrichment of interactor (log2),"GSK3B, P49841",6.39
same,PRISMA enrichment of interactor (log2),"NTMT1, Q9BV86 [2]",4.1
MSKEGVVG [CLCN3],PRISMA enrichment of interactor (log2),"IK, Q13123",5.11
same,PRISMA enrichment of interactor (log2),"LAMP1, P11279",5.38
same,PRISMA enrichment of interactor (log2),"LYPLA1, O75608",4.9
MLELK [C6orf62],PRISMA enrichment of interactor (log2),"NDUFA12, Q9UI09",6.01
same,PRISMA enrichment of interactor (log2),"UBE2R2, Q712K3",4.89
MAATILW [RAD23B],PRISMA enrichment of interactor (log2),"NSUN4, Q96CB9",8.18
MTDKYRRMGIKY [ZZZ3],PRISMA enrichment of interactor (log2),"NXT1, Q9UKK6",5.14
same,PRISMA enrichment of interactor (log2),"PINX1, Q96BK5",6.7
MVLMGQVP [CRADD],PRISMA enrichment of interactor (log2),"KPNA6, O60684",5.9
MVSVSAFPA [PPP6R3],PRISMA enrichment of interactor (log2),"GPN2, Q9H9Y4",4.63
same,PRISMA enrichment of interactor (log2),"IARS2, Q9NSE4",7.13
MSYNNRMQESTYQ [MAGI2-AS3],PRISMA enrichment of interactor (log2),"TRAF2, Q12933",8.97
MMRDLGTLLSPVCS [EI24],PRISMA enrichment of interactor (log2),"NELFE, P18615",4.77
same,PRISMA enrichment of interactor (log2),"POLDIP2, Q9Y2S7",6.55
same,PRISMA enrichment of interactor (log2),"STAU2, Q9NUL3",5.64
same,PRISMA enrichment of interactor (log2),"WRNIP1, Q96S55",5.42
MDETPKQRIQED [GCNT2],PRISMA enrichment of interactor (log2),"NTMT1, Q9BV86 [3]",6.22
MGCWVDGAGK [TRIM69],PRISMA enrichment of interactor (log2),"MPHOSPH10, O00566",5.35
same,PRISMA enrichment of interactor (log2),"NCOR2, Q9Y618",5.71
same,PRISMA enrichment of interactor (log2),"SCYL1, Q96KG9",5.54
MAVLLKGL [VPS39],PRISMA enrichment of interactor (log2),"TBCD, Q9BTW9",5.37
same,PRISMA enrichment of interactor (log2),"UTP11, Q9Y3A2",4.55

# In a second layout: entries from further up
binder	measurement	setting	value
MVSVSAFPA [PPP6R3]	PRISMA enrichment of interactor (log2)	IARS2, Q9NSE4	7.13
MSYNNRMQESTYQ [MAGI2-AS3]	PRISMA enrichment of interactor (log2)	TRAF2, Q12933	8.97
MMRDLGTLLSPVCS [EI24]	PRISMA enrichment of interactor (log2)	NELFE, P18615	4.77
same	PRISMA enrichment of interactor (log2)	POLDIP2, Q9Y2S7	6.55
